PubChem BioAssay AID1259254 – NCATS, 2017

Test: 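Gene knock-downs that lead to re-replication, shown by excess G2 DNA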 (primary screen)
Cell system: human HCT116 colorectal cancer cells
Knock-down reagent: single siRNA against human genes
Timing: 3 days
Measured: 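Nuclei stained with Hoechst and imaged; cell-cycle phase assigned by DNA content; G2 share scaled per plate, non-targeting siRNA 0%, GMNN siRNA 100%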
Scale: G2 robust z-score: higher = more G2 cells, more excess DNA replication
Active means: 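An siRNA counts as active if its G2 robust z-score lies at least 5 MADs above the screen median; here such calls match roughly 38% of GMNN control or more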
Shown is one part, drawn at random, of about 59,000 deposited reagents. About 1,550 of them (2.6%) were called active. 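G2 share is only a proxy for re-replication; each gene was hit by three separate siRNAs, and active genes were retested.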 Not all columns of the deposit are shown. Not given: the amount of reagent.

ANAPC16 [SID160732369] | G2 robust z-score: -0.309; outcome: inactive
ANAPC16 [SID160755717] | G2 robust z-score: -1.04; outcome: inactive
ANAPC16 [SID160755718] | G2 robust z-score: -1.18; outcome: inactive
PYY [SID160715204] | G2 robust z-score: -0.782; outcome: inactive
PYY [SID160715205] | G2 robust z-score: 0.523; outcome: inactive
PYY [SID160731575] | G2 robust z-score: 0.112; outcome: inactive
C6orf136 [SID160761725] | G2 robust z-score: 2.14; outcome: inactive
C6orf136 [SID160761727] | G2 robust z-score: -0.845; outcome: inactive
C6orf136 [SID160761728] | G2 robust z-score: 5.02; outcome: active
PIR [SID160720297] | G2 robust z-score: -1.11; outcome: inactive
PIR [SID160720298] | G2 robust z-score: 1.39; outcome: inactive
PIR [SID160720299] | G2 robust z-score: 1.44; outcome: inactive
CCDC63 [SID160759798] | G2 robust z-score: 3.12; outcome: inactive
CCDC63 [SID160759799] | G2 robust z-score: -0.769; outcome: inactive
CCDC63 [SID160759800] | G2 robust z-score: -0.175; outcome: inactive

Continued, starting with the last 3 of the part before.
CCDC63 [SID160759798] | G2 robust z-score: 3.12; outcome: inactive
CCDC63 [SID160759799] | G2 robust z-score: -0.769; outcome: inactive
CCDC63 [SID160759800] | G2 robust z-score: -0.175; outcome: inactive
TPSD1 [SID160736273] | G2 robust z-score: -1.1; outcome: inactive
TPSD1 [SID160736274] | G2 robust z-score: -0.702; outcome: inactive
TPSD1 [SID160736275] | G2 robust z-score: 0.0115; outcome: inactive
TGS1 [SID160754677] | G2 robust z-score: -1.1; outcome: inactive
TGS1 [SID160754678] | G2 robust z-score: -0.398; outcome: inactive
TGS1 [SID160754679] | G2 robust z-score: -0.864; outcome: inactive
MRGPRX2 [SID160730557] | G2 robust z-score: -0.893; outcome: inactive
MRGPRX2 [SID160755550] | G2 robust z-score: 0.589; outcome: inactive
MRGPRX2 [SID160755551] | G2 robust z-score: -0.0825; outcome: inactive
SLC50A1 [SID160733636] | G2 robust z-score: 2.87; outcome: inactive
SLC50A1 [SID160744706] | G2 robust z-score: 4.17; outcome: inactive
SLC50A1 [SID160744707] | G2 robust z-score: 2.15; outcome: inactive
MYH7B [SID160731607] | G2 robust z-score: -0.301; outcome: inactive
MYH7B [SID160746478] | G2 robust z-score: -1.22; outcome: inactive
MYH7B [SID160746479] | G2 robust z-score: -1.04; outcome: inactive
